# Laboratory results reported in ChEMBL document CHEMBL1908284, “Rational use of in vitro P-glycoprotein assays in drug discovery” (J Pharmacol Exp Ther, 2001).
# By UniProt entry, the sequences of proteins in these tests, tags left out.
# UniProt P08183, whole entry: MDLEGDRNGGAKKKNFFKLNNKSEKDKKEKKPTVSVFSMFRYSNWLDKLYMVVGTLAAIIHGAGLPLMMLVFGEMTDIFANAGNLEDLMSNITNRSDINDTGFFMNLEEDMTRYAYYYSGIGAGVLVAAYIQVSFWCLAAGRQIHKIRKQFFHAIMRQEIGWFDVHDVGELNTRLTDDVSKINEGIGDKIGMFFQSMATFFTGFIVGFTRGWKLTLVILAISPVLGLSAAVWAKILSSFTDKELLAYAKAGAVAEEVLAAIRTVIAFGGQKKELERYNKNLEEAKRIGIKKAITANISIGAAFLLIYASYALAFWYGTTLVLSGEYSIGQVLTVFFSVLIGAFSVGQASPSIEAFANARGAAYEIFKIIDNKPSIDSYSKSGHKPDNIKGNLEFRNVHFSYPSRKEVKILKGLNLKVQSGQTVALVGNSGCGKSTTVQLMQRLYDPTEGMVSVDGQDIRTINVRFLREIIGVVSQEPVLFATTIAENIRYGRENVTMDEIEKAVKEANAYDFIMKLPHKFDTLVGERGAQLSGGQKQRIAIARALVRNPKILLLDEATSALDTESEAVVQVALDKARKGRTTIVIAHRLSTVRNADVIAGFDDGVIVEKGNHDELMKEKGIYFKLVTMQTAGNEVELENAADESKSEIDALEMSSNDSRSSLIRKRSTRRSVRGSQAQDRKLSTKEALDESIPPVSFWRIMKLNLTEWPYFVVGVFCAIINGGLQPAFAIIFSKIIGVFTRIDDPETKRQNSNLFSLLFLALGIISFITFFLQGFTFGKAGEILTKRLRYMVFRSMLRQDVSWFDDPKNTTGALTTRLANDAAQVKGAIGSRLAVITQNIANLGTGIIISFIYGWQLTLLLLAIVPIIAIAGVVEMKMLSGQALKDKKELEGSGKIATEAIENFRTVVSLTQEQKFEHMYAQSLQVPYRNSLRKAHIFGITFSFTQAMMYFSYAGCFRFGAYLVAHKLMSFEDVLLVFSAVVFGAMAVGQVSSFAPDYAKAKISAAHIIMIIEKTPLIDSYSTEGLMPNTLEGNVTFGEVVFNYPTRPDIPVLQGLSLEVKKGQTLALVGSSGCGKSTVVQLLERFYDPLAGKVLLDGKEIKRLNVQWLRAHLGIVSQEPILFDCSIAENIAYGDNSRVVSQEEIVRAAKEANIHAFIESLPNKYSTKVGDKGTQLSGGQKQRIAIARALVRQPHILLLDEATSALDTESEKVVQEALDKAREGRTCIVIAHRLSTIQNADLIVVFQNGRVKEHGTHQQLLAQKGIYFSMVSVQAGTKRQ
# Columns and labels:
# [1] = biological target: ATP-dependent translocase ABCB1 (Homo sapiens, UniProt P08183); settings: spodoptera frugiperda, sf9, 20 µM;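 further: Compound-stimulated ATPase activity measured in membrane preparations of MDR1-expressing Sf9 cells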
# [2] = biological target: T1, ATP-dependent translocase ABCB1 (MDR1) (Homo sapiens, UniProt P08183); assay: in vitro; settings: dog, MDCK-MDR1
# [3] = biological target: T1, ATP-dependent translocase ABCB1 (MDR1); assay: in vitro; settings: dog, MDCK-MDR1; remark: listed apart in the source
# [4] = biological target: T1, ATP-dependent translocase ABCB1 (MDR1); assay: in vitro; settings: dog, MDCK-MDR1; remark: listed apart in the source
structure (smiles),measurement,setting,value
COC(=O)C1=C(C)NC(C)=C(C(=O)OC)C1c1ccccc1[N+](=O)[O-] [NIFEDIPINE],Ratio_ATPase activity,[1],2.08
same,Papp A→B,[2],61 ×10⁻⁶ cm/s
same,Papp B→A,[3],76.5 ×10⁻⁶ cm/s
same,efflux ratio,[4],1.26
